Results as given in patent US20250236878A1 (priority 2019, published 2025).

GGIRAAPTGNER (Glycine max) [GmRHPP]
increased foliar iron levels, average relative to untreated (foliar 3.0 mL/tree (Table 71)): 28% | increased foliar boron levels, average relative to untreated across three trials (foliar 3.0 mL/tree (Table 72)): 12%
